{"source": "PubChem BioAssay AID504834", "about": "(National Center for Advancing Translational Sciences (NCATS), 2011)", "note": "Among all 320,000 compounds or so, about 22,000 (6.9%) were called active. This list was built around the results that the source calls inconclusive (neither active nor inactive); the mix of calls is not that of the screen. Calls follow the shape of the dose curve; as a rule, active = well fitted inhibition curve with a large enough effect; inconclusive = small, poorly fitted or top-dose-only effect, or another doubt; inactive = no such curve, though single readings can be large or run the other way. A potency beside an inconclusive call is a rough fit, not a confirmed value. % is scaled to controls: 0 for no effect and ±100 for the full control effect; potency is read from the fitted curve at half-maximal effect."}
{"experiment": "Primary qHTS for delayed death inhibitors of the malarial parasite plastid, 96 hour incubation", "conditions": "P. falciparum luciferase reporter growth; series mostly up to 28.7 µM; activity change, negative = inhibition: at the top concentration", "how_it_was_run": "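Compounds incubated with erythrocytes infected by luciferase-expressing P. falciparum (2% hematocrit, 0.05% parasitemia final) for 96 hours, 37 C in 5% CO2. Growth inhibition scored as decreased luciferase luminescence.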"}
{"smiles": "COc1ccc(/C=C2/C(=O)ON=C2C)cc1Cl", "activity change, negative = inhibition": "inactive: -5.09%"}
{"smiles": "O=C(COC(=O)c1ccc(N2CCOCC2)c([N+](=O)[O-])c1)Nc1ccc2c(c1)OCO2", "activity change, negative = inhibition": "inactive: 23.8%"}
{"smiles": "Nc1nc(SCC(=O)NC2CCCC2)[nH]c(=O)c1NC(=O)c1cccs1", "activity change, negative = inhibition": "inactive: 35.6%"}
{"smiles": "O=C(N/N=C/c1ccco1)c1cccc([N+](=O)[O-])c1", "Potency": "inconclusive: 10.4 µM [inhibitor, single point]"}
{"smiles": "COc1ccc(/C(C)=N/NC(=O)CNC(=O)c2cccs2)cc1", "activity change, negative = inhibition": "inactive: 24.9%"}
{"smiles": "C=CCc1cc(Cl)ccc1OCCOCCNC(C)(C)C", "activity change, negative = inhibition": "inactive: 2.69%"}
{"smiles": "COc1cc2c(cc1OC)C(c1cccc(OC)c1OC)CC(=O)N2", "note": "(stereo not given)", "Potency": "inconclusive: 10.4 µM [inhibitor, partial curve, poor fit]"}
{"smiles": "CC1CCC(NCCNC(=O)c2ccco2)CC1", "note": "(stereo not given)", "Potency": "inconclusive: 4.15 µM [inhibitor, single point]"}
{"smiles": "CCC(C)NC(=O)c1ccc(C2SCC(=O)N2Cc2ccccc2)cc1", "note": "(stereo not given)", "Potency": "inconclusive: 6.57 µM [inhibitor, partial curve]"}
{"smiles": "COc1ccc(CCC(=O)O)c(O)c1", "activity change, negative = inhibition": "inactive: -1.37%"}
{"smiles": "COC(=O)c1ccc(NC(=O)Nc2ccccc2C)cc1", "Potency": "inconclusive: 10.4 µM [inhibitor, single point]"}
{"smiles": "COc1ccc(NC(=O)c2nc(C)c(C3(C)CC(c4ccccc4)=NO3)s2)cc1", "note": "(stereo not given)", "Potency": "inconclusive: 14.7 µM [inhibitor, single point]"}
{"smiles": "Cc1ccc(-c2nc3ncccc3o2)cc1N", "Potency": "inconclusive: 3.7 µM [inhibitor, single point]"}
{"smiles": "C[C@H](NC(=O)c1nc[nH]c1C(=O)NC1CCN(C(=O)OC(C)(C)C)CC1)C(=O)OC(C)(C)C", "Potency": "inconclusive: 4.15 µM [inhibitor, partial curve, poor fit]"}
{"smiles": "CCOC(=O)C1CN(S(C)(=O)=O)c2cc(CC(=O)OC)ccc2O1", "note": "(stereo not given)", "Potency": "inconclusive: 6.57 µM [inhibitor, single point]"}
{"smiles": "CCCCOc1ccc(-c2nnc(-c3ccco3)o2)cc1", "activity change, negative = inhibition": "inactive: -0.346%"}
{"smiles": "COc1ccc2cc3c(N)nn(C(=O)Cc4ccccc4OC)c3nc2c1", "activity change, negative = inhibition": "inactive: 57%"}
{"smiles": "COCc1c(C(=O)Nc2ccc(Cl)cc2F)oc2ccccc12", "activity change, negative = inhibition": "inactive: 67.5%"}
{"smiles": "COc1cc(NC(=O)N[C@H](C(=O)O)C(C)C)cc(OC)c1", "Potency": "inconclusive: 11.7 µM [inhibitor, partial curve]"}
{"smiles": "CNC(=O)COC(=O)/C=C/c1cn(-c2ccccc2)nc1-c1ccc(C)o1", "Potency": "active: 7.38 µM"}
{"smiles": "O=C(CN(Cc1ccccc1Cl)C(=O)CCC(=O)Nc1nccs1)NCC1CCCO1", "note": "(stereo not given)", "Potency": "inconclusive: 20.8 µM [inhibitor, single point]"}
{"smiles": "CCCc1cc(=O)oc2c(C)c(OCC(=O)c3ccc(N4CCCC4)cc3)ccc12", "Potency": "inconclusive: 14.7 µM [inhibitor, partial curve, poor fit]"}
{"smiles": "CC(=O)Nc1ccc(-c2cc(C(=O)O)c3ccc(C)cc3n2)cc1", "activity change, negative = inhibition": "inactive: 8.61%"}
{"smiles": "COCCN=C1N[C@@H](c2cccc(C(F)(F)F)c2)C(C(=O)OC)=C(C)N1Cc1ccccc1", "Potency": "active: 4.65 µM"}
{"smiles": "O=C1CCCN1CCC(=O)N1CCCC(Nc2ccc(F)cc2)C1", "note": "(stereo not given)", "Potency": "inconclusive: 6.57 µM [inhibitor, partial curve, poor fit]"}
{"smiles": "CC(NC(=O)Cn1c(=O)oc2cc(S(=O)(=O)N3CCCC3)ccc21)c1ccccc1", "note": "(stereo not given)", "Potency": "inconclusive: 18.5 µM [inhibitor, single point]"}
{"smiles": "CCOc1ccc2[nH]c(=O)c(C(c3nnnn3CC3CCCO3)N3CCc4ccccc4C3)cc2c1", "note": "(stereo not given)", "activity change, negative = inhibition": "inactive: -14.2%"}
{"smiles": "O=C(O)C1CCCCC1C(=O)NC(c1ccccc1)c1ccccc1", "note": "(stereo not given)", "Potency": "inconclusive: 0.415 µM [inhibitor, partial curve, poor fit]"}
{"smiles": "COC(=O)c1ccccc1Oc1ccc(NC(=O)c2ccco2)cc1", "Potency": "inconclusive: 9.28 µM [inhibitor, partial curve]"}
{"smiles": "CCc1ccc2[nH]c(=O)c(CN(Cc3ccco3)C(=S)NCC3CCCO3)cc2c1", "note": "(stereo not given)", "Potency": "inconclusive: 18.5 µM [inhibitor, single point]"}
{"smiles": "O=C(c1cc(C(=O)N2CCOCC2)c2nc3ccccc3n2c1)c1ccccc1O", "Potency": "inconclusive: 13.1 µM [inhibitor, partial curve, poor fit]"}
{"smiles": "CC#CCN1c2ccccc2[C@]23C[C@@H](C(=O)OC)N(C(=O)c4cc(C)oc4C)C2=NC(C(=O)OC)=C(C(=O)OC)[C@H]13", "Potency": "inconclusive: 18.5 µM [inhibitor, single point]"}
{"smiles": "CCN1CCN(c2nc3c(C)cccn3c(=O)c2/C=C(\\C#N)S(=O)(=O)c2ccccc2)CC1", "Potency": "inconclusive: 5.22 µM [inhibitor, partial curve]"}
{"smiles": "CC(C)Sc1nc(SCC(=O)NCc2ccco2)c2c3c(sc2n1)COC(C)(C)C3", "Potency": "active: 2.62 µM"}
{"smiles": "Cc1nc2ncnn2c(N2CCCC(C(=O)Nc3ccccc3Br)C2)c1C", "note": "(stereo not given)", "Potency": "inconclusive: 10.4 µM [inhibitor, partial curve, poor fit]"}
{"smiles": "CCOc1ccccc1C1C(C(=O)Nc2ccccc2OC)=C(C)Nc2nnnn21", "note": "(stereo not given)", "Potency": "inconclusive: 11.7 µM [inhibitor, single point]"}
{"smiles": "CCOc1ccc(C(C(=O)NCC2CCCO2)N(Cc2cccs2)C(=O)c2snc(C(N)=O)c2N)cc1", "note": "(stereo not given)", "Potency": "inconclusive: 0.208 µM [inhibitor, full curve, poor fit]"}
{"smiles": "O=C(Cc1ccccc1F)Nc1ccc(S(=O)(=O)N2CCCCC2)cc1", "Potency": "inconclusive: 18.5 µM [inhibitor, single point]"}
{"smiles": "Cc1cc(NC(=O)CCc2ccc(C)o2)no1", "Potency": "inconclusive: 13.1 µM [inhibitor, partial curve]"}
{"smiles": "CC1=CC(C)(C)N(C(=O)c2ccc(F)cc2)c2cc3c(cc21)OCO3", "activity change, negative = inhibition": "inactive: -18.4%"}
{"smiles": "COCCn1c(=NC(=O)CSC(C)=O)sc2cc(OC)ccc21", "Potency": "inconclusive: 10.4 µM [inhibitor, single point]"}
{"smiles": "CC(=O)Nc1ccc(NC(=O)c2cc(-n3cnnc3)ccc2Cl)cc1", "activity change, negative = inhibition": "inactive: 11%"}
{"smiles": "O=C(NC(=S)Nc1cccc(Cl)c1N1CCOCC1)c1cccs1", "activity change, negative = inhibition": "inactive: 39.2% [at 1.15 µM]"}
{"smiles": "CCOc1cccc2cc(-c3nnc(NCc4ccc5c(c4)OCO5)s3)c(=O)oc12", "activity change, negative = inhibition": "inactive: 25.4%"}
{"smiles": "COc1ccccc1C(=O)COC(=O)CN1C(=O)c2ccccc2C1=O", "activity change, negative = inhibition": "inactive: 30.8%"}
